# The inconclusive results got no clear call from the source; some entries with a clear call stand among them for comparison. Where the call is inconclusive, the potency comes from a doubtful curve fit. Active and inactive are the calls of the source. Calls come from the whole dose curve; as a rule, active = well fitted curve in the direction sought with a large enough effect; inconclusive = small, poorly fitted or top-dose-only effect, or another doubt; inactive = no such curve, though single readings can be large; an effect the other way counts as inactive or inconclusive.
# Columns and labels:
# [1] = Quantitative High-Throughput drug screen in 47 multiple myeloma cell lines against the NCATS MIPE library collection: KMS12BM_JCRB cell viability assay (AID 1918971); settings: KMS12BM myeloma viability, CellTiter-Glo ATP, 48 h; series mostly up to 45.8 µM; note: nearly all actives have a fitted effect of over 35% in size
# Method in brief: (§1)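 Steps: seed 500 cells per well; pin-transfer MIPE 4.0 library; incubate 48 h at 37C, 5% CO2, humidified; add CellTiter-Glo, 5 min room temperature; read luminescence.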
# [2] = Quantitative High-Throughput drug screen in 47 multiple myeloma cell lines against the NCATS MIPE library collection: KMS20_JCRB cell viability assay (AID 1918973); settings: CellTiter-Glo ATP, 48 h; viability (% of DMSO): at 45.8 µM (top of the series); note: nearly all actives have a fitted effect of over 45% in size
# Method in brief: (§2)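 Myeloma cell lines, 500 cells per well, exposed to MIPE 4.0 library compounds for 48 h at 37C, 5% CO2. Viability from ATP by CellTiter-Glo luminescence; normalised to DMSO (100%) and media-only (0%) wells.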
# [3] = Quantitative High-Throughput drug screen in 47 multiple myeloma cell lines against the NCATS MIPE library collection: KMS21BM_JCRB cell viability assay (AID 1918974); settings: ATP luminescence, 48 h; viability: at 45.8 µM (top of the series) unless noted
# Method in brief: as §2
# [4] = Quantitative High-Throughput drug screen in 47 multiple myeloma cell lines against the NCATS MIPE library collection: KMS26_JCRB cell viability assay (AID 1918975); settings: KMS26 myeloma cells viability, CellTiter-Glo ATP, 48 h; viability (% of DMSO): at 45.8 µM (top of the series); note: nearly all actives have a fitted effect of over 45% in size
# Method in brief: as §1
# [5] = Quantitative High-Throughput drug screen in 47 multiple myeloma cell lines against the NCATS MIPE library collection: MMM1_PLB cell viability assay (AID 1918976); note: nearly all actives have a fitted effect of over 35% in size
# Method in brief: (§3)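 500 cells/well; MIPE 4.0 drugs pin-transferred; 48 h, 37C, 5% CO2. CellTiter-Glo, 5 min RT, luminescence. Controls: DMSO 100%, media 0%.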
# [6] = Quantitative High-Throughput drug screen in 47 multiple myeloma cell lines against the NCATS MIPE library collection: MOLP8_DSMZ cell viability assay (AID 1918977); settings: MOLP8 myeloma viability, CellTiter-Glo ATP luminescence, 48 h; viability (% of control): at 45.8 µM (top of the series); note: nearly all actives have a fitted effect of over 45% in size
# Method in brief: as §3
# [7] = Quantitative High-Throughput drug screen in 47 multiple myeloma cell lines against the NCATS MIPE library collection: MM1S_ATCC cell viability assay (AID 1918980); settings: MM1S myeloma viability, CellTiter-Glo ATP luminescence, 48 h; viability (% of control): at 45.8 µM (top of the series); note: nearly all actives have a fitted effect of over 45% in size
# Method in brief: as §3
# [8] = Quantitative High-Throughput drug screen in 47 multiple myeloma cell lines against the NCATS MIPE library collection: NCIH929_DSMZ cell viability assay (AID 1918978); settings: NCI-H929 myeloma viability, CellTiter-Glo ATP, 48 h; series mostly up to 45.8 µM; note: nearly all actives have a fitted effect of over 35% in size
# Method in brief: as §3
# [9] = Quantitative High-Throughput drug screen in 47 multiple myeloma cell lines against the NCATS MIPE library collection: OCIMY1_PLB cell viability assay (AID 1918979); note: nearly all actives have a fitted effect of over 35% in size
# Method in brief: as §3
# [10] = Quantitative High-Throughput drug screen in 47 multiple myeloma cell lines against the NCATS MIPE library collection: KMS12PE_JCRB cell viability assay (AID 1918972); note: nearly all actives have a fitted effect of over 30% in size
# Method in brief: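 CellTiter-Glo luminescence (ATP) after 48 h compound exposure, 37C/5% CO2; 500 cells/well; MIPE 4.0 approved/investigational drugs pinned in; DMSO = 100%, media only = 0% viability.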
# Potency is the fitted concentration of half-maximal effect.
SMILES,Potency [1],Potency [2],Potency [3],Potency [4],Potency [5],Potency [6],Potency [7],Potency [8],Potency [9],Potency [10]
O=C(O)c1cccnc1Nc1cccc(C(F)(F)F)c1,"inconclusive: 0.0372 µM [rising, full curve]",inactive,"inconclusive: 0.059 µM [rising, full curve, poor fit]","inconclusive: 37.2 µM [cytotoxic, single point]","inconclusive: 0.0033 µM [rising, full curve, poor fit]","inconclusive: 3.32 µM [rising, partial curve, poor fit]",inactive,–,–,–
O=C1CCCC2=C1C(c1[nH]ncc1Cl)N=C(Nc1nc3ccccc3o1)N2 (centres undefined),active: 4.69 µM,"inconclusive: 14.8 µM [cytotoxic, partial curve, poor fit]","inconclusive: 33.2 µM [rising, partial curve]","inconclusive: 3.72 µM [cytotoxic, full curve, poor fit]",active: 4.69 µM,"inconclusive: 3.72 µM [cytotoxic, full curve, poor fit]","inconclusive: 29.6 µM [cytotoxic, single point]",–,–,–
O=C(O)c1ccccc1C(=O)Nc1ccc(-c2ccccc2)cc1,"inconclusive: 4.18 µM [cytotoxic, partial curve, poor fit]","inconclusive: 0.0012 µM [cytotoxic, full curve, poor fit]","inconclusive: 7.43 µM [rising, full curve, poor fit]","inconclusive: 20.9 µM [cytotoxic, single point]",–,inactive,"inconclusive: 18.7 µM [cytotoxic, partial curve, poor fit]",inactive,–,–
CN(C1CCc2c(c3ccccc3n2CC(=O)O)C1)S(=O)(=O)c1ccc(F)cc1 (centres undefined),"inconclusive: 20.9 µM [cytotoxic, partial curve, poor fit]",inconclusive: 0.001 µM [cytotoxic],active: 0.418 µM,inactive,–,–,–,inactive,–,–
C=C(c1ccc(C(=O)O)cc1)c1cc2c(cc1C)C(C)(C)CCC2(C)C,"inconclusive: 18.7 µM [cytotoxic, partial curve, poor fit]","inconclusive: 0.0042 µM [rising, full curve, poor fit]","inconclusive: 0.0526 µM [rising, full curve]","inconclusive: 8.33 µM [cytotoxic, single point]","inconclusive: 0.0047 µM [rising, full curve]",inactive,"inconclusive: 33.2 µM [cytotoxic, single point]","inconclusive: 29.6 µM [cytotoxic, single point]",–,–
CN(Cc1cc(Br)cc(Br)c1N)C1CCCCC1,"inconclusive: 13.2 µM [cytotoxic, partial curve, poor fit]","inconclusive: 26.4 µM [cytotoxic, single point]","inconclusive: 0.0037 µM [cytotoxic, full curve, poor fit]","inconclusive: 18.7 µM [cytotoxic, partial curve, poor fit]",active: 33.2 µM,–,inactive,inactive,–,–
CC(C)NCC(O)c1ccc(O)c(O)c1 (centres undefined),"inconclusive: 14.8 µM [cytotoxic, partial curve, poor fit]",active: 1.18 µM,active: 0.372 µM,"inconclusive: 7.43 µM [cytotoxic, partial curve, poor fit]",active: 7.43 µM,active: 23.5 µM,–,"inconclusive: 2.64 µM [cytotoxic, partial curve, poor fit]",inconclusive: 0.001 µM [cytotoxic],–
NS(=O)(=O)c1cc(C(=O)O)c(NCc2ccco2)cc1Cl,inactive,"inconclusive: 0.0047 µM [rising, full curve, poor fit]","inconclusive: 0.0023 µM [cytotoxic, full curve, poor fit]",active: 0.209 µM,"inconclusive: 13.2 µM [cytotoxic, partial curve, poor fit]","inconclusive: 6.62 µM [cytotoxic, partial curve, poor fit]","inconclusive: 0.0066 µM [rising, full curve, poor fit]",–,–,–
Cc1cc(C=c2sc3nc4ccccc4n3c2=O)c(C)n1-c1ccccc1,"inconclusive: 6.62 µM [cytotoxic, partial curve, poor fit]","inconclusive: 3.32 µM [cytotoxic, full curve, poor fit]","inconclusive: 9.35 µM [rising, partial curve]",–,"inconclusive: 7.43 µM [cytotoxic, full curve, poor fit]","inconclusive: 16.6 µM [cytotoxic, partial curve, poor fit]","inconclusive: 33.2 µM [cytotoxic, single point]",–,–,–
Cc1ccc2nc(NCCN)c3ncc(C)n3c2c1,active: 3.72 µM,active: 6.62 µM,"inconclusive: 6.62 µM [cytotoxic, full curve, poor fit]",–,active: 2.64 µM,active: 4.18 µM,–,–,active: 14.8 µM,–
NNc1nncc2ccccc12,inactive,inactive,–,inactive,–,"inconclusive: 11.8 µM [rising, single point]",inactive,inactive,–,–
COc1ccc(-c2cc(=O)c3c(O)cc(O)cc3o2)cc1O,"inconclusive: 1.66 µM [cytotoxic, partial curve, poor fit]",active: 4.18 µM,"inconclusive: 26.4 µM [rising, single point]",–,–,"inconclusive: 23.5 µM [cytotoxic, partial curve, poor fit]",active: 6.62 µM,–,inactive,–
N#CC(=C(N)Sc1ccccc1N)C(C#N)=C(N)Sc1ccccc1N,inactive,"inconclusive: 8.33 µM [cytotoxic, partial curve, poor fit]","inconclusive: 1.32 µM [cytotoxic, full curve, poor fit]",–,–,"inconclusive: 0.935 µM [cytotoxic, full curve]","inconclusive: 5.9 µM [cytotoxic, full curve]",–,–,–
COc1ccc(C2Sc3ccccc3N(CCN(C)C)C(=O)C2OC(C)=O)cc1 (centres undefined),–,inactive,"inconclusive: 33.2 µM [rising, single point]","inconclusive: 11.8 µM [cytotoxic, full curve, poor fit]","inconclusive: 2.35 µM [cytotoxic, partial curve, poor fit]","inconclusive: 0.0042 µM [cytotoxic, full curve, poor fit]",–,–,–,inactive
CC(C(=O)O)c1ccc(-c2ccccc2)c(F)c1 (centres undefined),"inconclusive: 14.8 µM [cytotoxic, partial curve, poor fit]",–,"inconclusive: 29.6 µM [rising, partial curve]","inconclusive: 0.0166 µM [rising, full curve, poor fit]",–,inactive,–,active: 16.6 µM,–,–
CC(C)(C(=O)NCC(F)(F)C(F)(F)F)C(=O)N[C@@H]1C(=O)Nc2ccccc2-c2ccccc21,inactive,"inconclusive: 29.6 µM [cytotoxic, partial curve, poor fit]",–,"inconclusive: 0.332 µM [rising, full curve, poor fit]",–,inactive,–,–,–,–
CCCS(=O)c1ccc2nc(NC(=O)OC)[nH]c2c1 (centres undefined),–,"inconclusive: 16.6 µM [cytotoxic, partial curve, poor fit]","inconclusive: 0.0372 µM [rising, full curve]",active: 10.5 µM,"inconclusive: 20.9 µM [cytotoxic, partial curve]","inconclusive: 33.2 µM [cytotoxic, partial curve, poor fit]","inconclusive: 26.4 µM [cytotoxic, single point]",–,"inconclusive: 20.9 µM [cytotoxic, partial curve]","inconclusive: 7.43 µM [cytotoxic, partial curve, poor fit]"
CN(C)c1cc(NC(=O)CNC(C)(C)C)c(O)c2c1C[C@@H]1C[C@H]3[C@H](N(C)C)C(=O)C(C(N)=O)=C(O)[C@@]3(O)C(=O)C1=C2O,inactive,"inconclusive: 0.372 µM [rising, full curve, poor fit]","inconclusive: 13.2 µM [rising, partial curve, poor fit]",–,active: 14.8 µM,active: 9.35 µM,inactive,–,–,–
O=C(c1ccc(F)c(F)c1Nc1ccc(I)cc1F)N1CC(O)([C@H]2CCCCN2)C1,active: 23.5 µM,–,"inconclusive: 0.0743 µM [cytotoxic, full curve, poor fit]",–,"inconclusive: 33.2 µM [cytotoxic, single point]","inconclusive: 18.7 µM [cytotoxic, partial curve, poor fit]",–,–,"inconclusive: 20.9 µM [cytotoxic, single point]",–

# Shown bar-delimited: part of the list above.
SMILES | Potency [1] | Potency [2] | Potency [3] | Potency [4] | Potency [5] | Potency [6] | Potency [7] | Potency [8] | Potency [9] | Potency [10]
Cc1ccc2nc(NCCN)c3ncc(C)n3c2c1 | active: 3.72 µM | active: 6.62 µM | inconclusive: 6.62 µM [cytotoxic, full curve, poor fit] | – | active: 2.64 µM | active: 4.18 µM | – | – | active: 14.8 µM | –
COc1ccc(-c2cc(=O)c3c(O)cc(O)cc3o2)cc1O | inconclusive: 1.66 µM [cytotoxic, partial curve, poor fit] | active: 4.18 µM | inconclusive: 26.4 µM [rising, single point] | – | – | inconclusive: 23.5 µM [cytotoxic, partial curve, poor fit] | active: 6.62 µM | – | inactive | –
